# In patent US20240117269A1, “NOVEL AROMATIC MONOTHIOKETALS AS FRAGRANCE COMPOUNDS” (SYMRISE AG, priority 2019, published 2024):
# What was measured:
# [1] = Odor description by a group of experts comprising 10 members; conditions: neat odorant
# Procedure: The odor perception threshold, i.e. the ODT value (“odor detection threshold”), was determined using a dynamic olfactometer designated TO8 and a group of experts in accordance with the EN 13725 standard, in which an odorous air sample is diluted with clean air. The dilution is presented to the test persons (testers) for evaluation. The odor description was carried out by a group of experts comprising 10 members.
# [2] = Olfactory comparison by perfumers of perfume oil with odorant solution versus with DPG only
# Procedure: (§1) The perfume oil prepared was divided into two equal parts. To eliminate dilution effects, a first part of the perfume oil was mixed with 0.5% by weight of dipropylene glycol (DPG), based on the total amount of the first part of the perfume oil. To the second part of the perfume oil, 0.5 wt % 4H-3,1-benzoxathiin 10% DPG was added (i.e., a 10% solution of 4H-3,1-benzoxathiin in DPG), based on the total amount of the part of the perfume oil. The resulting compositions were olfactorily compared with each other.
# as §1, with “spiked” for “mixed”, “0.1 wt. %” for “0.5% by weight of”, “0.1 wt.” for “0.5 wt”
# as §1, with “2.5%” for “0.5%”, “2.5 wt.” for “0.5 wt”
# as §1, with “exclude” for “eliminate”, “0.5% by weight of 2-methyl-4H-3,1-benzoxathiin 1%” for “0.5 wt % 4H-3,1-benzoxathiin 10%”, “1%” for “10%”, “2-methyl-4H-3,1-benzoxathiin” for “4H-3,1-benzoxathiin”
# as §1, with “exclude” for “eliminate”, “1.5%” for “0.5%”, “1.5% by weight of 2-methyl-4H-3,1-benzoxathiin 1%” for “0.5 wt % 4H-3,1-benzoxathiin 10%”, “1%” for “10%”, “2-methyl-4H-3,1-benzoxathiin” for “4H-3,1-benzoxathiin”
smiles,measurement,setting,value
"CC1OCc2ccccc2S1 (stereo not shown) [2-methyl-4H-3,1-benzoxathiin]",Smell (odor description),[1],"Indole-like, cresol-like, animal-like"
same,Smell (odor description),[1]; listed as (ii),"indole-like, cresol-like, and animalic"
same,Smell (odor description),[1]; listed as drawing 12,"Indole-like, cresol-like, animal-like"
same,olfactory effect of addition to perfume oil composition IV,"[2]; 0.5% by weight of 1% solution in DPG, fabric softener perfume oil",gains fullness and character
same,olfactory effect of addition to perfume oil composition V,"[2]; 1.5% by weight of 1% solution in DPG, eau de toilette perfume oil","a very animalic character, reminiscent of ylang-ylang and cresol"
"c1ccc2c(c1)COCS2 [4H-3,1-benzoxathiin]",Smell (odor description),[1],"leather, smoke"
same,Smell (odor description),[1]; listed as (i),leathery-smoky
same,Smell (odor description),[1]; listed as drawing 11,"Leather, smoke"
same,olfactory effect of addition to perfume oil composition II,"[2]; 0.1% by weight of 10% solution in DPG, soap perfume oil",a strong floral complexity
same,olfactory effect of addition to perfume oil composition I,"[2]; 0.5% by weight of 10% solution in DPG, eau de toilette perfume oil",more volume and a soft leather note
same,olfactory effect of addition to perfume oil composition III,"[2]; 2.5% by weight of 10% solution in DPG, shampoo and shower gel perfume oil",a uniqueness and special character
"CC(C)(C)C1OCc2ccccc2S1 (stereo not shown) [2-tert-butyl-4H-3,1-benzoxathiin]",Smell (odor description),[1],Technical
"CC(C)C1OCc2ccccc2S1 (stereo not shown) [2-isopropyl-4H-3,1-benzoxathiin]",Smell (odor description),[1],"salicylate-like, medicinal, fruity, fresh, Dynascone-like"
same,Smell (odor description),[1]; listed as (iii),"salicylate-like, medicinal, fruity, fresh, and Dynascone-like"
same,Smell (odor description),[1]; listed as drawing 13,"Salicylate-like, medicinal, fruity, fresh, Dynascone-like."
"CC1(C)OCc2ccccc2S1 [2,2-dimethyl-4H-3,1-benzoxathiin]",Smell (odor description),[1],Technical
